# Source: patent publication US12005142B2, “Sustained-release compositions comprising a therapeutic agent for treating depression or anxiety and uses thereof” (TAIWAN LIPOSOME CO., LTD., priority 2018, dated 2024)
# Structures can show the parent of a compound that is named as a salt. Where two headings read alike, the source gives them in different places.
# What was measured:
# [1] = for AUC0-inf/dose / Cmax/dose: rat plasma; for time within which scopolamine was undetectable in plasma: FIG. 2
# in vivo = details: female, Sprague-Dawley, rat, plasma
structure (smiles),measurement,setting,value
"CN1[C@@H]2C[C@@H](OC(=O)[C@H](CO)c3ccccc3)C[C@H]1[C@@H]1O[C@@H]12 [Free Scopolamine, scopolamine hydrobromide trihydrate]",AUC0-inf/dose,[1]; free scopolamine IV 2 mg/kg,321.89
same,Cmax/dose,[1]; free scopolamine IV 2 mg/kg,407.00
same,time within which scopolamine was undetectable in plasma,[1]; free scopolamine IV,≤ 2 h
same,AUC0-inf/dose,[1]; free scopolamine SC 5 mg/kg,177.40
same,Cmax/dose,[1]; free scopolamine SC 5 mg/kg,127.93
same,time within which scopolamine was undetectable in plasma,[1]; free scopolamine SC,≤ 6 h
same,AUC(0-inf),"in vivo; iv, 2 mg/kg",644 ng·h/mL
same,AUC(0-t),"in vivo; iv, 2 mg/kg",639 ng·h/mL
same,Cmax,"in vivo; iv, 2 mg/kg",814 ng/mL
same,AUC(0-inf),"in vivo; sc, 5 mg/kg",887 ng·h/mL
same,AUC(0-t),"in vivo; sc, 5 mg/kg",886 ng·h/mL
same,Cmax,"in vivo; sc, 5 mg/kg",640 ng/mL
